Test results reported in PMC3084826.
Results are given in words; binding and its absence hold for the method and conditions named. Binding seen in cells or lysates may run through a third protein. Some results given as binding are weak or reduced against the parent protein; the word gives no strength.

Chains of the proteins cited; added tags and fusions are not shown.
UniProt Q08211: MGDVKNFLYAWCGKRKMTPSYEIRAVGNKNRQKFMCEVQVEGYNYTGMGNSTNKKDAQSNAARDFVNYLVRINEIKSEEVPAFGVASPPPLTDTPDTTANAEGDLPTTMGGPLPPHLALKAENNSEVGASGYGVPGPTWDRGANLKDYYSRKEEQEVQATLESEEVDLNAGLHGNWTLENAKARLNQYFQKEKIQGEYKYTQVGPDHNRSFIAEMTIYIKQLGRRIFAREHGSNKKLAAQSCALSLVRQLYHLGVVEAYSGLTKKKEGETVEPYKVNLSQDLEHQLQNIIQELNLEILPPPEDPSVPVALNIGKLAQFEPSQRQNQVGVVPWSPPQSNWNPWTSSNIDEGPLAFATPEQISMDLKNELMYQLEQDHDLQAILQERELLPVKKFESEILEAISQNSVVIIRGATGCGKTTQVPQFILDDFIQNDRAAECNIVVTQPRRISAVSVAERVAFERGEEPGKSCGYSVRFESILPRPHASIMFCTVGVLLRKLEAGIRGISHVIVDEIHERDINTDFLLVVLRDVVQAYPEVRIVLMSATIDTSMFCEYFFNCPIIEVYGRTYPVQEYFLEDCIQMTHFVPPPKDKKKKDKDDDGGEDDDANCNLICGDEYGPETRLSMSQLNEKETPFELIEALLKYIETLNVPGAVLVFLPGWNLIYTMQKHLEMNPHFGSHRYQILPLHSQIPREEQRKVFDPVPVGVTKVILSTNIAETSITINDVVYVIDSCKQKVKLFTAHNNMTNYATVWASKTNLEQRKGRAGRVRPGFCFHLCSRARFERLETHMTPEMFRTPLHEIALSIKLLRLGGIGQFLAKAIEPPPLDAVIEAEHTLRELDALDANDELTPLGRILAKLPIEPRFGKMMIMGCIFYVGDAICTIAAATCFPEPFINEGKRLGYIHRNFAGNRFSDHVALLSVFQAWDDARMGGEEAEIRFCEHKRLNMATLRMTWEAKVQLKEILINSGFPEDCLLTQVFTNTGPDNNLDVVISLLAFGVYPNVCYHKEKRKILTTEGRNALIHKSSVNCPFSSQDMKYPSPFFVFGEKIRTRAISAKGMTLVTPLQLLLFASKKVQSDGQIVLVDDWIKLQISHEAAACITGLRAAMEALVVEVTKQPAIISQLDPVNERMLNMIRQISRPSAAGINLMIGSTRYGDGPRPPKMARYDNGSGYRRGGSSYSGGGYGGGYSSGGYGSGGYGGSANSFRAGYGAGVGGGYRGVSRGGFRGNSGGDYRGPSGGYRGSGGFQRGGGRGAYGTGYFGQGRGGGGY

Target: RNA Helicase A (human (endogenous in VCaP)) (UniProt Q08211)
Assay: co-IP; VCaP cells, with or without 10 µM YK-4-279 for 24 h; immunoprecipitation as previously described (ref. 11); which protein was precipitated is not told

binding: binds
B1: ERG (protein, UniProt P11308 1-479)
chain: MASTIKEALSVVSEDQSLFECAYGTPHLAKTEMTASSSSDYGQTSKMSPRVPQQDWLSQPPARVTIKMECNPSQVNGSRNSPDECSVAKGGKMVGSPDTVGMNYGSYMEEKHMPPPNMTTNERRVIVPADPTLWSTDHVRQWLEWAVKEYGLPDVNILLFQNIDGKELCKMTKDDFQRLTPSYNADILLSHLHYLRETPLPHLTSDDVDKALQNSPRLMHARNTGGAAFIFPNTSVYPEATQRITTRPDLPYEPPRRSAWTGHGHPTPQSKAAQPSPSTVPKTEDQRPQLDPYQILGPTSSRLANPGSGQIQLWQFLLELLSDSSNSSCITWEGTNGEFKMTDPDEVARRWGERKSKPNMNYDKLSRALRYYYDKNIMTKVHGKRYAYKFDFHGIAQALQPHPPESSLYKYPSDLPYMGSYHAHPQKMNFVAPHPPALPVTSSSFFAAPNPYWNSPTGGIYPNTRLPTSHMPSHLGTYY
